Binding data for one molecule are collected here from paper PMC4148444, “P. aeruginosa SGNH Hydrolase-Like Proteins AlgJ and AlgX Have Similar Topology but Separate and Distinct Roles in Alginate Acetylation” (PLoS Pathogens, 2014).

This assay concerns the target Selenomethionine-incorporated Pseudomonas putida AlgJ residues 75-370 (SeMet PpAlgJ75-370), crystallography construct (Pseudomonas putida KT2440) (UniProt Q88ND3). The experiment in a line: crystal structure; SeMet protein, space group C2, two molecules in the asymmetric unit, 1.83 Å; both purified.

No constants are given. Whether binding was seen depends on the method and setting.

B1: Selenomethionine-incorporated Pseudomonas putida AlgJ residues 75-370 (SeMet PpAlgJ75-370), crystallography construct (domain or fragment, UniProt Q88ND3 75-370)
chain: NEGRPGVVLGRDQWLFSDEEFKPTAGAEQLMQENLALIRGVRDTLQQHGSQLVLAIVPAKARVYTEYLGKERPASLHDDLYNQFHAQARQANVFAPDLMAPMEQAKARGQVFLRTDTHWTPMGAEVAAQALAEAVSRQSLLNGDPQAFITEAGNTAPYKGDLTNFLPLDPLFSNLLPAPDNLQKRTTRPVDAEGDAGDALFADKQIPVALVGTSYSANPHWNFLGALQQALRSDVANYAEDGHGPLLPMLKYLQSDAFKNAAPQVVVWEFPERYLPMKNDLSSFDPQWIAQLKNSR
modifications: selenomethionine in place of methionine
B1: the binding result is reported as “no binding”.
